# From the supplement of paper PMC10849652
# Protein sequences, listed by entry. Tags and fused reporters are not part of them. Lines headed by an entry give the natural chain unless they say otherwise; changes in a name come on top.
# UniProt P62879, whole entry, looked up: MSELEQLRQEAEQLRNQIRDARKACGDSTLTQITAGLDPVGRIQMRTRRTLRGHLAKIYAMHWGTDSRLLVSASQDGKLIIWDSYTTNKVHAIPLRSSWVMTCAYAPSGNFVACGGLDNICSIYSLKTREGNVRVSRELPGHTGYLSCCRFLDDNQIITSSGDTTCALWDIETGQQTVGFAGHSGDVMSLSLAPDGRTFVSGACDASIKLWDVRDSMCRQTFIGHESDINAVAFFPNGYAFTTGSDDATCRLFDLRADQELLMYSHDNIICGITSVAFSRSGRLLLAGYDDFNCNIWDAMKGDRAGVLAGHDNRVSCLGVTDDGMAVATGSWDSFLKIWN
# UniProt O60234, whole entry, looked up: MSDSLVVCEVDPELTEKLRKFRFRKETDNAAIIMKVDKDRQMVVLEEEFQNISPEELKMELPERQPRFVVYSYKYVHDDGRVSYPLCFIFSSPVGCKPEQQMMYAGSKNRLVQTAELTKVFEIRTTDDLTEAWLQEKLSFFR
# UniProt Q6Y7W6: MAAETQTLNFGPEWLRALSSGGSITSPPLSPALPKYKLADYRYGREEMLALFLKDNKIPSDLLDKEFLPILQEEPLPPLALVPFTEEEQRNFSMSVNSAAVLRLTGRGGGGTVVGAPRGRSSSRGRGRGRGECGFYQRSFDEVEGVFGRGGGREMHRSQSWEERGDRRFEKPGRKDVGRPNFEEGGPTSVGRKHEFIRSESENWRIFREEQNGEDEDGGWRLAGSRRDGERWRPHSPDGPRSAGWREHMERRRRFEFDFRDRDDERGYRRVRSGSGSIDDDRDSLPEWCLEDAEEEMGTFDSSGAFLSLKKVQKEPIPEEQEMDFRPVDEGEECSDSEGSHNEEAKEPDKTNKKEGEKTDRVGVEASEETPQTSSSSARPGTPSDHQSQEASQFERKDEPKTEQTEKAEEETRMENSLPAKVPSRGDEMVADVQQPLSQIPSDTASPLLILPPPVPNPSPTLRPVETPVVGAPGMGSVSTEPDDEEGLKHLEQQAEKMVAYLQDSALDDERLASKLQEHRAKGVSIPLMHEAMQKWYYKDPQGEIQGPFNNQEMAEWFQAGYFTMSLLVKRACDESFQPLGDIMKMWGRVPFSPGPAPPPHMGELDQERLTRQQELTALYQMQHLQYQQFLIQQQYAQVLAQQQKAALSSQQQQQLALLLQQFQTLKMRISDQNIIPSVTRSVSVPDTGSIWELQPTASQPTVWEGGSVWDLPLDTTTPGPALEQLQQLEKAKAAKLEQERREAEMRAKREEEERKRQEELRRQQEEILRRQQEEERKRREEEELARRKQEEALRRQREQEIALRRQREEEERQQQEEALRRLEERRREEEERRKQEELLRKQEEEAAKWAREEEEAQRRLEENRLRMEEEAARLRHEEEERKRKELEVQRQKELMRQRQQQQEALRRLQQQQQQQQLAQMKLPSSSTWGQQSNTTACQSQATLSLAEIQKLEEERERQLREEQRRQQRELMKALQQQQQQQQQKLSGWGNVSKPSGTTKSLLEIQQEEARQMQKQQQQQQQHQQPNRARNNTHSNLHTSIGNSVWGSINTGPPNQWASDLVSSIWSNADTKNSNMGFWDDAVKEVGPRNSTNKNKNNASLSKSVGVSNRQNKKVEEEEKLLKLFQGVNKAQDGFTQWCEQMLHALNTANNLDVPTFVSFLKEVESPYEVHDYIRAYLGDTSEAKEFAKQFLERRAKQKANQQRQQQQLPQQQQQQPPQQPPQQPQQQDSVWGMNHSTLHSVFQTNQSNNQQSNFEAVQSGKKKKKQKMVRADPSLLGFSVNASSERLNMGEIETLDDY
# UniProt Q9UBI6: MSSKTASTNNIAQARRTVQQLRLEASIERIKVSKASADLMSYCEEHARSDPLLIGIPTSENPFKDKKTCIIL
# UniProt Q13439: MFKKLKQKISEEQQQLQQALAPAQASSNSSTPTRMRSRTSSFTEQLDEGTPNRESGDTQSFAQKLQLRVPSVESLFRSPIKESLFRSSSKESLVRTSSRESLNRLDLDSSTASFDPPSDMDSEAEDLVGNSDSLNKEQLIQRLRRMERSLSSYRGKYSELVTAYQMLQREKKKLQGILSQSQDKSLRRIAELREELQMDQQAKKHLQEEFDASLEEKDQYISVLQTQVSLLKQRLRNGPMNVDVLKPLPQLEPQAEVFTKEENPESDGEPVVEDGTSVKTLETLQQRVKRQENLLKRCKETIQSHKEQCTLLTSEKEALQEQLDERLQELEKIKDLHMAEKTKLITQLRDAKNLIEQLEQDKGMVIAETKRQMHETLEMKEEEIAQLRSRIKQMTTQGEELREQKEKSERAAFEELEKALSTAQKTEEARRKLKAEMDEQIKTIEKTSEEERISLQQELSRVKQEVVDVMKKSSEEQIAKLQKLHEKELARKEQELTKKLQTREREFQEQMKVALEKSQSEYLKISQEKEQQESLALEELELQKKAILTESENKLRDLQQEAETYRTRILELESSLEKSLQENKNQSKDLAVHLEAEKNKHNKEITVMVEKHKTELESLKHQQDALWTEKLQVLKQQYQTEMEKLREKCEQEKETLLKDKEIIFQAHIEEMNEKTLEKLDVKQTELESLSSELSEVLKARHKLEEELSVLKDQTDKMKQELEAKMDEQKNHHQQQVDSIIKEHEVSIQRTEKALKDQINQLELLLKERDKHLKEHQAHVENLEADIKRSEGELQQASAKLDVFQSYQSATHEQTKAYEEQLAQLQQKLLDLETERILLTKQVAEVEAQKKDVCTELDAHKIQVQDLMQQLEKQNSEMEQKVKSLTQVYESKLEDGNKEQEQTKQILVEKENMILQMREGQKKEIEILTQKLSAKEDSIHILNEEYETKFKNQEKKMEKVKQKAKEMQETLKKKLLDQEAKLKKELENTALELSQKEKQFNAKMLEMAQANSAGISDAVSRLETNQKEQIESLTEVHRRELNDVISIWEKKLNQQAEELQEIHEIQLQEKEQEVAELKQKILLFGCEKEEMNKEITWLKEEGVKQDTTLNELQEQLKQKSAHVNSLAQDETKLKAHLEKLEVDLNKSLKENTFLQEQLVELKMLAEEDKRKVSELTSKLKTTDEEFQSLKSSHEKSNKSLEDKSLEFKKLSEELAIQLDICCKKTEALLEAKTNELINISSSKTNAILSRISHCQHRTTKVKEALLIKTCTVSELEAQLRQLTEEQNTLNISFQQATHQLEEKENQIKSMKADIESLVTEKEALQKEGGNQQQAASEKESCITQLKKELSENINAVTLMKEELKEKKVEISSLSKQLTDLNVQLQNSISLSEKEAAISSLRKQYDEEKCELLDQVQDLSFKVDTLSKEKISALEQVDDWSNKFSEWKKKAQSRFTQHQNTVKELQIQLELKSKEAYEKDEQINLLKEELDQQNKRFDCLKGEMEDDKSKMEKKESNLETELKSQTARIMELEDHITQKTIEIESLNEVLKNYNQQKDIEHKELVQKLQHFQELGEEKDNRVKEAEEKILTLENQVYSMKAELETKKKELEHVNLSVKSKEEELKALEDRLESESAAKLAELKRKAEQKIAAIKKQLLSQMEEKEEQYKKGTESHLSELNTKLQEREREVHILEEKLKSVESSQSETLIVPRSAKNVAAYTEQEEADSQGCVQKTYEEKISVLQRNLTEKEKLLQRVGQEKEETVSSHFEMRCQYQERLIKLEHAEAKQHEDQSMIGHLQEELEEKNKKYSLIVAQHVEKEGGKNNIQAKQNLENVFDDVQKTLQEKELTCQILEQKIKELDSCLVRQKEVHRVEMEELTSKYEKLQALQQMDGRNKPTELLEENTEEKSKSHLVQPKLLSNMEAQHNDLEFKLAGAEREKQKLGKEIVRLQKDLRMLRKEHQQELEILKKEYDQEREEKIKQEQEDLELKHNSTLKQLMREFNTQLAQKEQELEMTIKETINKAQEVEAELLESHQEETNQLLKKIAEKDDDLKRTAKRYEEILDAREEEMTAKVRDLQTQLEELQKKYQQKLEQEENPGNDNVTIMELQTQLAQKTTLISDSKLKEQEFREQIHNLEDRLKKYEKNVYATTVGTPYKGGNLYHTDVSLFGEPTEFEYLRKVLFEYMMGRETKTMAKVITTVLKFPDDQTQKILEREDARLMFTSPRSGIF
# UniProt Q5VW38: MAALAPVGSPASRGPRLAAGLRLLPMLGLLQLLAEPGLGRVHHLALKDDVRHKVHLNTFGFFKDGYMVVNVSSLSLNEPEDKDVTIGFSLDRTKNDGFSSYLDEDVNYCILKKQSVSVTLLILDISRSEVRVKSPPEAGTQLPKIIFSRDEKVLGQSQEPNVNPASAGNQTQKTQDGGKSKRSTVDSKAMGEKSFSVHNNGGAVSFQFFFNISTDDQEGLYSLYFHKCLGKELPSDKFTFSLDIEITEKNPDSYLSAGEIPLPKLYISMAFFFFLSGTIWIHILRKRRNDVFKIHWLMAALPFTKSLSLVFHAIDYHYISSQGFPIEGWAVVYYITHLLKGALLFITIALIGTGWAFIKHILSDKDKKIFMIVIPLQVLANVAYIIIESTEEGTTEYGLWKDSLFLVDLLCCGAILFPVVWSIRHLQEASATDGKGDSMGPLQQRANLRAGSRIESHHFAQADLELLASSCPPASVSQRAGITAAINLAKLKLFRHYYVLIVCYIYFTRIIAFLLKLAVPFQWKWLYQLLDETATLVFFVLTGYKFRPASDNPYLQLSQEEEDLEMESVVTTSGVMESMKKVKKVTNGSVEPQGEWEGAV
# UniProt Q9P2T1: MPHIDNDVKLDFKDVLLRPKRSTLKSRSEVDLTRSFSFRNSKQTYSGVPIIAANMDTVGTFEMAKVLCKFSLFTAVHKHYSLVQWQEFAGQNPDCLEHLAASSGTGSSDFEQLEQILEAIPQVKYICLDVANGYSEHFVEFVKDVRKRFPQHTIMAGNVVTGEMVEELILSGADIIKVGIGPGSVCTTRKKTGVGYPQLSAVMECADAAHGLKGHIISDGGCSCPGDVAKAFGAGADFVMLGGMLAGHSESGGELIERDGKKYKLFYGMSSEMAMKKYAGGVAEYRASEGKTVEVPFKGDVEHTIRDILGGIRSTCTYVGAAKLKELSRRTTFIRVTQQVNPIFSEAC
# UniProt Q9NZD2: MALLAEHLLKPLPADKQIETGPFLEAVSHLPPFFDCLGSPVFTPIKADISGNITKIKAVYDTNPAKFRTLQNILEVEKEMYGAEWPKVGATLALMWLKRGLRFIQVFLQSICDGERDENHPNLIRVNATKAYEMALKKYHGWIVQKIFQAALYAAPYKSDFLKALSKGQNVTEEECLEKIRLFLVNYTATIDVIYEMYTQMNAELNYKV
# UniProt P38435: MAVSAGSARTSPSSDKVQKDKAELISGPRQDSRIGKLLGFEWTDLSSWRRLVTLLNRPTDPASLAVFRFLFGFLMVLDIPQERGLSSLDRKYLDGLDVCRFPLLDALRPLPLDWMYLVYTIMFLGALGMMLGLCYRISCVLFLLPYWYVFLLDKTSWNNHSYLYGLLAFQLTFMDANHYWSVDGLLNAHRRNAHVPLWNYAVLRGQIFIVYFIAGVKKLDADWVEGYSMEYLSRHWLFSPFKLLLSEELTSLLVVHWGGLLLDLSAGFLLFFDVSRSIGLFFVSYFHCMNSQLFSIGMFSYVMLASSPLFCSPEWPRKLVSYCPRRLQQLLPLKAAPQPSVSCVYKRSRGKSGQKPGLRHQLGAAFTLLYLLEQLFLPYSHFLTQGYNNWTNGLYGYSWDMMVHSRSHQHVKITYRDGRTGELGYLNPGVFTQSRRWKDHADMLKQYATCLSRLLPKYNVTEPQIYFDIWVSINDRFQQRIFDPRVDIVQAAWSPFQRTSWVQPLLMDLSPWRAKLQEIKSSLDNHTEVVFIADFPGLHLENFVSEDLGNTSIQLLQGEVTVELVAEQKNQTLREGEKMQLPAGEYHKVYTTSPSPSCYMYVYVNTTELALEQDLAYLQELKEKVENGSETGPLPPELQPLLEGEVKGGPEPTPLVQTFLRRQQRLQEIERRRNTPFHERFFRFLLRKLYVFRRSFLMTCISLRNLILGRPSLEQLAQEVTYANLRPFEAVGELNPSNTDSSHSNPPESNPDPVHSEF
# UniProt Q9NWU2, whole entry, looked up: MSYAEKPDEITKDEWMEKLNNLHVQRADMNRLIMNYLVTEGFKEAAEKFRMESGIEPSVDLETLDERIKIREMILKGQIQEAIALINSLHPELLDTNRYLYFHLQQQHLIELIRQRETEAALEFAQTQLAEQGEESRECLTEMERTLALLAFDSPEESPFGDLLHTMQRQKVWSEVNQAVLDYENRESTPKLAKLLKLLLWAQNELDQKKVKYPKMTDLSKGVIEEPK
# UniProt P62873, whole entry, looked up: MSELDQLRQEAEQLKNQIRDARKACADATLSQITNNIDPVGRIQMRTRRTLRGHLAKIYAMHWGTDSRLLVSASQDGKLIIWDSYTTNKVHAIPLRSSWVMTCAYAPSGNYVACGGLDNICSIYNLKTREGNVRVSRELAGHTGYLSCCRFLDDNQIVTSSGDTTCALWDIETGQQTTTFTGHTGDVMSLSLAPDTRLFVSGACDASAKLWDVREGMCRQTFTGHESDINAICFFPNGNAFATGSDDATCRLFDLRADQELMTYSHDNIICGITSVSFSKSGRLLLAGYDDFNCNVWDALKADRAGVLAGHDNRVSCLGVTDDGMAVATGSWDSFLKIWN
# This is one part of the list.
# Key:
# Experiment in all cases: log2 fold change, soluble protein after heating vs DMSO (PISA); higher = thermal stabilisation; K562 lysate, 10 uM; active = over 0.2 and 3.5 SD of the protein, either way, in both replicates (recomputed)
# [1] = compound: NCC(=O)Nc1ccc(-n2nc(C(F)(F)F)cc2-c2ccc3c(ccc4ccccc43)c2)cc1
# Outline: (§1)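 Values give the log-two fold change in thermal stability against solvent controls, from duplicates. Crude K562 extract at 1 mg/mL protein, made by dounce homogenisation in PBS pH 7.4 with 1 mM MgCl2, was treated with 10 μM compound for 30 min. After 3 min heating across 48°C-58°C, aliquots were pooled, adjusted to 0.5% NP-40 at 4°C and centrifuged at 21,000xg for 90 min. The supernatant was measured by TMTpro 16plex LC-MS/MS with channel sums equalised.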
# vorinostat = compound: O=C(CCCCCCC(=O)Nc1ccccc1)NO [vorinostat]
# Outline: as §1
# silmitasertib = compound: O=C(O)c1ccc2c(c1)nc(Nc1cccc(Cl)c1)c1ccncc12 [silmitasertib]
# Outline: as §1
# [2] = compound: O=C1NC(=O)C(c2cnc3ccccn23)=C1c1cn2c3c(cc(F)cc13)CN(C(=O)N1CCCCC1)CC2
# Outline: as §1
# entospletinib = compound: c1cn2cc(-c3ccc4cn[nH]c4c3)nc(Nc3ccc(N4CCOCC4)cc3)c2n1 [entospletinib]
# Outline: as §1
Target,log2 fold change [1],log2 fold change (vorinostat),log2 fold change (silmitasertib),log2 fold change [2],log2 fold change (entospletinib)
GNB2 (UniProt P62879),inactive: 0.019,inactive: 0.032,inactive: -0.019,inactive: -0.036,inactive: -0.006
GLG1 isoform 2 (UniProt Q92896),inactive: -0.043,inactive: 0.107,inactive: -0.002,inactive: -0.01,inactive: -0.054
GMEB2 (UniProt Q9UKD1),inactive: 0.01,inactive: 0.005,inactive: -0.022,inactive: 0.025,inactive: -0.027
GOLIM4 (UniProt O00461),inactive: 0.006,inactive: 0.107,inactive: -0.023,inactive: -0.022,inactive: 0.029
GOT1 (UniProt P17174),inactive: 0.027,inactive: 0.136,inactive: -0.017,inactive: 0.008,inactive: 0.015
GMFG (UniProt O60234),inactive: -0.071,inactive: 0.165,inactive: 0.018,inactive: -0.036,inactive: 0.029
GIGYF2 (UniProt Q6Y7W6),inactive: -0.001,active: -0.252,inactive: -0.007,inactive: -0.042,inactive: 0.017
GGACT (UniProt Q9BVM4),inactive: 0.094,inactive: -0.255,inactive: 0.017,inactive: 0.203,inactive: 0.004
GNG12 (UniProt Q9UBI6),inactive: -0.13,–,–,–,–
GOLGA4 (UniProt Q13439),inactive: 0.126,inactive: -0.004,inactive: 0.069,inactive: 0.037,inactive: -0.039
GOLGA6B (UniProt A6NDN3),inactive: 0.019,inactive: 0.117,inactive: -0.002,active: 0.353,inactive: -0.084
GNPAT (UniProt O15228),inactive: 0.028,inactive: 0.027,inactive: 0.026,inactive: 0.018,inactive: -0.008
GPSM2 (UniProt P81274),inactive: 0.108,inactive: -0.152,inactive: 0.129,inactive: 0.074,inactive: -0.04
GPATCH11 (UniProt Q8N954),inactive: 0.005,inactive: 0.091,inactive: -0.025,inactive: -0.04,inactive: -0.01
GPR107 isoform 2 (UniProt Q5VW38),inactive: -0.015,inactive: 0.072,inactive: -0.031,inactive: -0.023,inactive: 0.004
GMPR2 isoform 2 (UniProt Q9P2T1),inactive: 0.011,inactive: 0.117,inactive: -0.009,inactive: 0.026,inactive: -0.012
GLMP (UniProt Q8WWB7),inactive: 0.167,inactive: 0.311,inactive: 0.018,inactive: -0.041,inactive: 0.089
GOSR1 (UniProt O95249),inactive: -0.037,inactive: 0.007,inactive: 0.01,inactive: -0.035,inactive: 0
GLTP (UniProt Q9NZD2),inactive: -0.166,inactive: 0.024,inactive: -0.062,inactive: 0.091,inactive: -0.071
GPN3 isoform 2 (UniProt Q9UHW5),inactive: 0.059,inactive: 0.037,inactive: 0.023,inactive: 0.008,inactive: 0.082
GGCX (UniProt P38435),inactive: 0.109,inactive: 0.033,inactive: -0.036,inactive: -0.013,inactive: -0.067
GIPC1 (UniProt O14908),inactive: -0.036,inactive: 0.029,inactive: 0.028,inactive: -0.034,inactive: 0.004
GLIPR2 (UniProt Q9H4G4),inactive: -0.069,inactive: 0.023,inactive: -0.004,inactive: 0.108,inactive: -0.091
GID8 (UniProt Q9NWU2),inactive: -0.041,inactive: -0.055,inactive: 0.007,inactive: -0.019,inactive: -0.069
GNB1 (UniProt P62873),inactive: 0.026,inactive: 0.064,inactive: 0.041,inactive: -0.037,inactive: 0.054
GPCPD1 (UniProt Q9NPB8),inactive: 0.061,inactive: -0.189,inactive: 0.025,inactive: 0.063,inactive: -0.008
GOLGA7 (UniProt Q7Z5G4),inactive: 0.032,inactive: 0.091,inactive: 0.018,inactive: -0.028,inactive: 0.008

# Look-ups from above:
# GGACT (UniProt Q9BVM4) | log2 fold change [2]: inactive: 0.203
# GLTP (UniProt Q9NZD2) | log2 fold change (entospletinib): inactive: -0.071
